Patent EP4389762A1, “INHIBITORS OF DUX4 ACTIVITY AND THEIR USE IN THERAPY” (Ospedale San Raffaele S.r.l., priority 2022, dated 2024)
No constants are given. Whether binding was seen depends on the method and setting. Binding seen in cells or lysates may run through a third protein. Some entries that bind do so weakly or less than the wild type.

Chains of the proteins cited; added tags and fusions are not shown. Residues count along the entry.
UniProt Q9UBX2, residues 1-159: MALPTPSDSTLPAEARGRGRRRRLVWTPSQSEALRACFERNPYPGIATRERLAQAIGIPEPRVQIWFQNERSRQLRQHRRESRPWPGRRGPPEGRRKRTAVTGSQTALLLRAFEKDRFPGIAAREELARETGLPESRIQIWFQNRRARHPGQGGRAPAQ

B1: Peptide 2 (aa. 188-248 of MATR3), biotinylated synthetic peptide (peptide)
peptide: SFDDRGPSLNPVLDYDHGSRSQESGYYDRMDYEDDRLRDGERCRDDSFFGETSHNYHKFDS
modifications: N-terminal biotin; C-terminal amide (-NH2)
B2: Peptide 3 (aa. 228-287 of MATR3), biotinylated synthetic peptide (peptide)
peptide: ERCRDDSFFGETSHNYHKFDSEYERMGRGPGPLQERSLFEKKRGAPPSSNIEDFHGLLPK
modifications: N-terminal biotin; C-terminal amide (-NH2)

What was measured:
6xHis-DUX4 dbd [1] = target: T1, 6xHis-DUX4 dbd (UniProt Q9UBX2 1-159); assay: His pull-down, 6xHis-DUX4 dbd on nickel beads, biotinylated peptide detected with streptavidin (Figure 12 legend)
T1 construct: range 1-159; Expressed in E. coli from pET-GB1 and purified on nickel beads; The limits 1-159 come from the phrase pETGB1-6xHis-DUX4 dbd (residues 1-159); also called DUX4 dbd (HD1+HD2); not shown: 6xHis tag and GB1 solubility peptide of vector pET-GB1

6xHis-DUX4 dbd [2] = target: T1, 6xHis-DUX4 dbd; assay: His pull-down, 6xHis-DUX4 dbd on nickel beads, biotinylated peptide detected with streptavidin

| Binder | binding (6xHis-DUX4 dbd [1]) | binding (6xHis-DUX4 dbd [2]) |
| --- | --- | --- |
| B1 | binds | binds |
| B2 | binds | binds |
